Assay results reported in publication doi:10.1101/2025.09.24.678297.
Results are given in words; binding and its absence hold for the method and conditions named. A result given as binding can be weak or reduced; the word gives no strength. For some of these results: Tags and fused reporters may be left off the sequences shown. For some of these results: In cells and extracts the contact can be indirect.

T1: Pil1-Ste4-mCherry (WT) (S. pombe) (UniProt P36622)
T1 sequence: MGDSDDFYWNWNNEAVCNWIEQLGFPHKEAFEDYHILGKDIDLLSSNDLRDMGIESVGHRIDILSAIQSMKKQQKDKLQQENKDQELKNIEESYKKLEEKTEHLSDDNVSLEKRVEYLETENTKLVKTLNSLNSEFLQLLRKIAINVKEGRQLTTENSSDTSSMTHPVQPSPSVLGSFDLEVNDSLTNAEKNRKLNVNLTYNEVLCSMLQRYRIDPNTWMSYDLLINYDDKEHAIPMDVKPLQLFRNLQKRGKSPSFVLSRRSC


Columns and labels:
[1] = molecular target: T1, Pil1-Ste4-mCherry (WT) (S. pombe); test: Pil1 co-recruitment assay
[2] = molecular target: Pil1-Ste4^ΔRA-mCherry (S. pombe); test: Pil1 co-recruitment assay
[3] = molecular target: Sms1-sfGFP (expressed under nmt41 promoter) (S. pombe); test: co-IP
[4] = molecular target: Sms1 arrestin domain-sfGFP (S. pombe); test: co-IP

Row | binding [1] | binding [3] | Molecule | other results
1 | no binding |  | Sms1^ΔSBD-sfGFP (S. pombe) | 
2 | binds |  | Sms1-sfGFP (expressed under nmt41 promoter) (S. pombe) | 
3 |  | binds | Ste4-3xFLAG-mCherry (protein, UniProt P36622 1-264) MGDSDDFYWNWNNEAVCNWIEQLGFPHKEAFEDYHILGKDIDLLSSNDLRDMGIESVGHRIDILSAIQSMKKQQKDKLQQENKDQELKNIEESYKKLEEKTEHLSDDNVSLEKRVEYLETENTKLVKTLNSLNSEFLQLLRKIAINVKEGRQLTTENSSDTSSMTHPVQPSPSVLGSFDLEVNDSLTNAEKNRKLNVNLTYNEVLCSMLQRYRIDPNTWMSYDLLINYDDKEHAIPMDVKPLQLFRNLQKRGKSPSFVLSRRSC | 

Further lines, the molecule ahead of its results:

Row | Molecule | binding [1] | binding [3] | other results
4 | Byr2-GFP (WT) (enzyme, UniProt P28829 1-659) MEYYTSKEVAEWLKSIGLEKYIEQFSQNNIEGRHLNHLTLPLLKDLGIENTAKGKQFLKQRDYLREFPRPCILRFIACNGQTRAVQSRGDYQKTLAIALKKFSLEDASKFIVCVSQSSRIKLITEEEFKQICFNSSSPERDRLIIVPKEKPCPSFEDLRRSWEIELAQPAALSSQSSLSPKLSSVLPTSTQKRSVRSNNAKPFESYQRPPSELINSRISDFFPDHQPKLLEKTISNSLRRNLSIRTSQGHNLGNFGQEILPRSSRRARPSELVCPLSSLRISVAEDVNRLPRIDRGFDPPLTVSSTQRISRPPSLQKSITMVGVEPLYQSNGNEKSSKYNVFSESAHGNHQVLSFSPGSSPSFIEQPSPISPTSTTSEDTNTLEEDTDDQSIKWIRGALIGSGSFGQVYLGMNASSGELMAVKQVILDSVSESKDRHAKLLDALAGEIALLQELSHEHIVQYLGSNLNSDHLNIFLEYVPGGSVAGLLTMYGSFEETLVKNFIKQTLKGLEYLHSRGIVHRDIKGANILVDNKGKIKISDFGISKKLELNSTSTKTGGARPSFQGSSFWMAPEVVKQTMHTEKTDIWSLGCLVIEMLTSKHPYPNCDQMQAIFRIGENILPEFPSNISSSAIDFLEKTFAIDCNLRPTASELLSHPFVS |  |  | binding [2]: binds
5 | Gpa1-3xFLAG-mCherry (WT) (protein, UniProt P27584 1-407) MGCMSSKYADTSGGEVIQKKLSDTQTSNSSTTGSQNARVPVLENWLNIVLRGKPQNVESSGVRVKGNSTSGGNDIKVLLLGAGDSGKTTIMKQMRLLYSPGFSQVVRKQYRVMIFENIISSLCLLLEAMDNSNVSLLPENEKYRAVILRKHTSQPNEPFSPEIYEAVHALTLDTKLRTVQSCGTNLSLLDNFYYYQDHIDRIFDPQYIPSDQDILHCRIKTTGISEETFLLNRHHYRFFDVGGQRSERRKWIHCFENVTALLFLVSLAGYDQCLVEDNSGNQMQEALLLWDSICNSSWFSESAMILFLNKLDLFKRKVHISPIQKHFPDYQEVGSTPTFVQTQCPLADNAVRSGMYYFYLKFESLNRIASRSCYCHFTTATDTSLLQRVMVSVQDTIMSNNLQSLMF |  | binds | binding [4]: binds
6 | Gpa1^Q244L-3xFLAG-mCherry (GTP-locked) (protein, UniProt P27584 1-407) MGCMSSKYADTSGGEVIQKKLSDTQTSNSSTTGSQNARVPVLENWLNIVLRGKPQNVESSGVRVKGNSTSGGNDIKVLLLGAGDSGKTTIMKQMRLLYSPGFSQVVRKQYRVMIFENIISSLCLLLEAMDNSNVSLLPENEKYRAVILRKHTSQPNEPFSPEIYEAVHALTLDTKLRTVQSCGTNLSLLDNFYYYQDHIDRIFDPQYIPSDQDILHCRIKTTGISEETFLLNRHHYRFFDVGGLRSERRKWIHCFENVTALLFLVSLAGYDQCLVEDNSGNQMQEALLLWDSICNSSWFSESAMILFLNKLDLFKRKVHISPIQKHFPDYQEVGSTPTFVQTQCPLADNAVRSGMYYFYLKFESLNRIASRSCYCHFTTATDTSLLQRVMVSVQDTIMSNNLQSLMF |  | binds | 
